This passage reports growth estimate results from the supplement of paper PMC5949888.

Most values lie at the floor of the assay. Slopes are relative: functional sequences can read slightly below zero.

This data set has as its system Saccharomyces cerevisiae PS128 hsf1 delta, HSF1(1-493) fusion. As to the kind of experiment: growth estimate (transactivation domain function in HSF1 fusion, heat-shock survival) (a.u. (slope of normalised read count over time)); higher = stronger growth at 37°C, i.e. more transactivation activity. To be noted: library: random library.
Take GSTSNR: the growth estimate was less than -0.25.
The result for NPENFAIKSALKRAEPCL reads less than -0.25.
The result for KSSAVSLTLRPLGPNGKTQH reads less than -0.25; that for RYIYVEGCEIRLSQAMGQTS, less than -0.25; that for LRAV, less than -0.25.
The value for PSPEEMNVPY was less than -0.25.
Take KRVDTGQR: the growth estimate was less than -0.25.
Regarding YPWPSHGVSKIPDTRFTTPH, the growth estimate is less than -0.25.
On to RRVTPLPQNISRMQLLQLGV, for which the growth estimate was less than -0.25.
For EIAKYKRISRTPRAAFGRGS, the growth estimate is less than -0.25.
In the case of VRRIGSMWERIVHC, the growth estimate was less than -0.25.
The result for SVWG reads less than -0.25.
Consider TTALRHSCAFGGKYPGSRWL, for which the growth estimate was less than -0.25.
HCDPPKVCVVLRLAPILLRS: the growth estimate was -0.218.
With TQAEPRHI, the growth estimate is less than -0.25.
For the substance AENMILVVRARGYRVASRVE, the growth estimate was less than -0.25.
Take RHRSSGCPDAPEGWLFGAKG: the growth estimate is less than -0.25.
The value for GLPGSRR was less than -0.25.
Take CGKNESICVLRSTRAGGQ: the growth estimate was less than -0.25.
The result for TNMFGPGYGIIALLKAFRPF reads less than -0.25; that for ILADRKTPTFQSVPWTKGD, less than -0.25.
The value for RMGYGAVYLTSQPRNKVTLL was less than -0.25; that for GPPQRTARCVSRKDSAETWG was less than -0.25.
Regarding GWRHRASLPRGFFSGFLAPC, the growth estimate is less than -0.25.
As to CLLVRMRCR, the growth estimate was less than -0.25.
The value for STSFNRPERFPES was less than -0.25; that for RMTSGSNECNTDFNPSSASP was less than -0.25.
The result for WAATVCNNAVLLLPISY reads less than -0.25; that for DFVGDGC, less than -0.25; that for KGQSVLIMQLPAVHAGAPWR, less than -0.25.
The result for TVTASIRAL reads less than -0.25; that for VSNRSNGVILRDRE, less than -0.25.
Turning to RVQAMCRGSCIVPALHCPPF, the growth estimate is less than -0.25.
Take AEI: the growth estimate was less than -0.25.
VILGVIGSSSARDYCKFLIP: the growth estimate is less than -0.25.
The result for KAIRSPQRPVSCRK reads less than -0.25; that for LKKSAGERVCIFCCAQTLRV, less than -0.25.
The value for DRWGDSPIRCPMEIAIDPGK was less than -0.25; that for RSNSLVKTSIWCGA was less than -0.25.
The value for TKILP was less than -0.25.
As to GKLPGSLSSAAGGVGYPAFR, the growth estimate is less than -0.25.
The result for FSRPSPGL reads less than -0.25.
The result for LPG reads less than -0.25.
The result for PTLQRGSARVDCVNAL reads less than -0.25; that for HPYNLLICPPLNSARILL, less than -0.25; that for IPASVEN, less than -0.25.
Consider RKRMGVYSKRIISRYSRGLT, for which the growth estimate was less than -0.25.
Consider DGNGAHSANTSSASRLDK, for which the growth estimate was less than -0.25.
The result for GELA reads less than -0.25.
The result for DEVLYGC reads less than -0.25; that for AKNAACGAHVNGMGIGDTLG, less than -0.25.
Consider FEIGERWIEHQPVILGIVLS, for which the growth estimate is less than -0.25.
The value for PSRVRKGPDRVLSQVAVTLS was less than -0.25; that for PQLNPDSPPN was -0.247; that for LLSSMHSGVNRWSETPTVRD was less than -0.25.
RHNLSEIGNGSSRTESAKR: the growth estimate is less than -0.25.
The value for SSPFLAKAPCYGVR was less than -0.25.
As to CKRVRI, the growth estimate was less than -0.25.
Regarding QGRTARGRRGTKE, the growth estimate was -0.25.
On to ASAWADISCFELTARIAL, for which the growth estimate was less than -0.25.
Turning to FKDRERKKTQDWGPPLLRRV, the growth estimate was less than -0.25.
On to GIKGWDEGNDLAAPFLKPDC, for which the growth estimate is less than -0.25.
With DQFLRAHSGLTRCAHGHCCN, the growth estimate was -0.203.
